B1: ASH-2 (protein, UniProt G5EFZ3 1-570)
chain: MRSSKGGRGRQAAPKTAPTTVCYCDGKRELGSVEVVCSTCLKWFHGRCLKEFHELNSNGVPFMICYTFTCKQCRPTAEDWKAKKADLVQMCVTVLATLSAERLKADGKLSAEHVPEDFTYLSLKDEIVPYMNENWYMLTAIKQKKEWHQNLAPTLLKEKNIFVQHNDDDDLFALAEKNLSLLGPLHEAVKLIGKRPIERENREPRHIELPPIEGPKTRGASKRRHAEAPVTGKKQKLAADYSSTAAPNGVQIDIPFSKDNYRYYLTEVDPNVPEDPAWNQNQSSAYVIPSFHYRELLNPTVNVSSNDRAFQLSINGNSITGFEGYSMARASHGVSKGTWYFEVNFDDQPDDSHIRIGWSQSYASLQACVGYNKFSYGWRSKHGTKFHEAKGKKYHFGGFKQGDVLGCLIHLPVDKKLQIPANLPSEKYLPVSHKGFNLISFKANYFFEVQEESADIAKTLVEMPGSYIEFFHNGKSCGKAYENIYAGAYYPSISIFKSATATMNLGPKFRNLPRGATGIHARADEQQHEQTLSDMLYLVSKEVNLDHPPRVKREDDDDVKDIKKEIKQEI
B2: RBBP-5 (protein, UniProt Q09309 1-454)
chain: MVEILDRTYGAQFPEELECHLDLQNASANCCKFNRWGSIVAVGCTDGRVLIYDFMTRNIARTFSAHCLPVSCLSWSRDGRKLLTSSADNSIAMFDVLAGTLLHRIRFNSMVTFAMFHPRNDNKAIVLQVNKQPTVEQFSPRIQTVLANDTPGSSDESASCVSYDRKGKYIIAGTGKGKLLIYNAETLKCVAWCKQNTVQQIRQIIVPMKSRFIITNTQDRVIRTYELEDLLHQRGQMVEAKYKVLDMVNKAAWKNVCTDSDGLYVCGASTKAHSLYIWESNTGSLIKILHGNKGEALLDVQWHPTRPIILSIAQGTVSMWTQAHVENWSAFAPEFQELEENEKYIEKENEFDMEDEDADEDMTSKSQDAEDDIIDVVNVRPEDYLASSDEEDCNIMKPARNLESGPLWYIPVPLDIENADNDQRLPDDIRNLDNLLNPAWVASAKGYELSPKSK
B3: OGT-1 (protein, UniProt O18158 1-1151)
chain: MEKPNYFQSYNKVIGATGEQLAPGAVPPHPVLAPSIAPGGVAGVSAANMANIMQTPGFANLVQQAIRTQLENQAAQQLAVNQQFQLNGATAVQQQLLLTPQQSLAQPIALAPQPTVVLNGVSETLKKVTELAHRQFQSGNYVEAEKYCNLVFQSDPNNLPTLLLLSAINFQTKNLEKSMQYSMLAIKVNNQCAEAYSNLGNYYKEKGQLQDALENYKLAVKLKPEFIDAYINLAAALVSGGDLEQAVTAYFNALQINPDLYCVRSDLGNLLKAMGRLEEAKVCYLKAIETQPQFAVAWSNLGCVFNSQGEIWLAIHHFEKAVTLDPNFLDAYINLGNVLKEARIFDRAVSAYLRALNLSGNHAVVHGNLACVYYEQGLIDLAIDTYKKAIDLQPHFPDAYCNLANALKEKGSVVEAEQMYMKALELCPTHADSQNNLANIKREQGKIEDATRLYLKALEIYPEFAAAHSNLASILQQQGKLNDAILHYKEAIRIAPTFADAYSNMGNTLKEMGDSSAAIACYNRAIQINPAFADAHSNLASIHKDAGNMAEAIQSYSTALKLKPDFPDAYCNLAHCHQIICDWNDYDKRVRKLVQIVEDQLCKKRLPSVHPHHSMLYPLSHAARIAIAAKHASLCFDKVHVQMLGKTPLIHADRFSVQNGQRLRIGYVSSDFGNHPTSHLMQSIPGMHDRSRVEVFCYALSVNDGTNFRSKLMNESEHFVDLSQIPCNGKAAEKIAQDGIHILINMNGYTKGARNEIFALRPAPIQVMWLGYPSTSGATFMDYIITDAVTSPLRLANAFTEKLAYMPHTFFIGDHAQMLRHLTDKVVVKDKETTERDSCLIMNTANMDPILAKSEIKEQVLDTEVVSGPNKELVRAEMVLPVLEVPTEPIKQMIMTGQMTMNVMEDMNVQNGLGQSQMHHKAATGEEIPNSVLLTSRAQYQLPDDAIVFCNFNQLYKIDPSTLDMWIKILENVPKSILWLLRFPYQGEEHIRKYCVERGLDPSRIVFSNVAAKEEHVRRGQLADVCLDTPLCNGHTTGMDILWTGTPMVTMPLESLASRVATSQLYALGVPELVAKTRQEYVSIAVRLGTDADHLANMRAKVWMARTSSTLFDVKQYCHDMEDLLGQMWKRYESGMPIDHITNNTETPHGL
B4: SUMV-1 (protein, UniProt P46582 1-1024)
chain: MKQTTRPPAQYIVAPGTRFRLVANEYDKNKYGQCNYASYRTLVRCKQIRSKEELAKHGGRCEEHVEFSKTLENNHKKEVMRCHAENDSKMQRRRFDPWIASNEYISDDDDYLQAAQTVPQRLPDVANDDILDNNSLRYAEYYTDKDILNIKMDLVQKDIDDLIEFKELVTSQAQKEHELLGNDEEEDYPTDMAQRRIFKASTKYSRNDYLTLTTIDPVFHQCCVGPDMDDSLVIVHTMHSILDKIDNFEPIDSEKQCNKPALHLSKFCFDHIILDRSQKMFDVCNACGLTAIGGVDPKCSFHIKSSAIAETTSCPCNRCVQPGEHASPKDEKNSITCYLNSSDDDEPTLGNLSRIESMVSPMQQFSNQSNTLTAPLPRRYQGPPAQVLRPPQMGPPPGINQVPYQPKANRTPPMTSQQLHEQQKLKMQEEEMMSQTCASDFRVRPIDASQFGGGKKKQRLPPRRSPSFGTSPNSYQFHQQSQKKMPSIISTAYNSSPGKMNFQGWKNQSTSSATRPLPQPRFPVHAARSQQPKMIPLEQTQDSIEDDIGPSPMFQGPEPSRRGVPYYKNAYRRTELPSRHAQHSPLTPSTSTSSSQLLAPPKSPQPGTSSQTFRSQASRLPIAPHRAIAAGLNPADVGTRPAYRSQMAGQRPGMTPSAQQGSPQLISPPRQGSMMPVAMNQSPQAVRRQTPVPPYRLMGPQRVTTSYTVVRSGSSSSVAGPSRSSVASGSQHTALDTVQHDPRLANINVRTFLSIGNRDLSTLTQDEIDLLMAGNSPEKGGRKAGAPGAKESSKAAGGAQKGTSAASTSVPEPTKSSESSVDPQSDVSFSNPSPAPEVIEKVAPAAMTITSNKRKIDETLASESTSSEATLIHDTTSSSSAETVSGEPPAKKSSDVSAPVPSPEKEKEKIDRPKTPKSSTKRTTPTPSGRTPRAAAIAANQAISHSKPNVPSASTSSSAASTDQENPLDLLAELSVAAAAEEQQQAIGSTSKNGGSTKKTQRKSPSRSSIGKKRENSEEYEEEL
B5: SUMV-2 (protein, UniProt Q22992 1-1145)
chain: MKPGRKSLPKKNRASNITEKMPTTSTEAQSSSSKNQDRCRSFSQELGVDDEPEEQQAPVATPKQTKKAQKTAKTTEEVKSPRKSARKSELKKPEPEEKAKEPRKSASKRKSSSLMNKDEPSTSTEAPSADVPGTSEASDEASEIQEAPENPNSALAIKKRLMGGGESSKSAPTKNPPKARKSNVKKPEKEAEALAPPEPPAEPQEAAETPAPEPLVPEKKPKIEDAPTTSSPKKSTPTSAPPTRASARVSKPNRLYADGSFNTEILGRTRITEQNPVKEAQAKESTPELADLPLPAGRRKSTAAPRAPPAPKPIPVINGVLRGYIPSVKVPLAEYEVDGEIINLNEGVNETMDTILAKVCEDGVEKHEDIDPKVVKAKKLAKIDYTKRLKLQVKKLDIQMRIKIPSTPEELGKRKRQAPKTDDFYWSAQSRTKLKGSSKEREETPAFDEESPIGGDEKRQQKARESISHLFDAEMDASIKEAKKYSVSFDKYIKPKITGALKHAKIKLMSRKRQSAEPDDFYYHELLVDQVSPSNSNVENVDVDVDIEETDDKVDPTEFEISEEGVIGIRDEAVDMAEQIALVIPRPTKHDGSPMSMDEIQMRAMEHVESRTKCLDGSLEIVLNQLGHEMAPPTRGVEEQGCQWHTVTSANAQALKNLYTIANNCTEDAITWTHQFMIENLEVHMLASYLSILKYAKRLNSSRFGYVISSTDQLDPEWTQVTSLLKSFVYKRHTEPGTEVLNNTIPYHRMTDTVFLLVPPTLTFGDHQRAPPRHHARIFRWLQSIGHQDSEFISFDEDIDATCSVAEYLSDVIVERICDKVRQKNKYRPNCNVVLVGYGASTYLIHRAANLVEGISAIISIGFPVMTSLGRRGTADDEILLTYCPTLFIVGAEGRRFNNEAITELRTSMISPSGLVVVGHSNDMILVPTSMLLRLGISQTVVFRMVLEKILDFLNLEPVRQQEFADLVPIELNNVFDLDSALLKSDKALSGLAFASSTHSASSSAAPSPVGASGRRATVTGAGSEDIAKRRKESIILSQQIAAPSISGPPPPAPSPRTEDRFLAFQNLVASTITTGDDMPRRASMGASPRVIERGDFRDHRPPPPPPLPILQNPVATPMSQQPPLPSPAPPPPRGPVDPASISLI

Sequences of proteins named here, by UniProt entry; tags and fusion partners are left off.
UniProt Q17963: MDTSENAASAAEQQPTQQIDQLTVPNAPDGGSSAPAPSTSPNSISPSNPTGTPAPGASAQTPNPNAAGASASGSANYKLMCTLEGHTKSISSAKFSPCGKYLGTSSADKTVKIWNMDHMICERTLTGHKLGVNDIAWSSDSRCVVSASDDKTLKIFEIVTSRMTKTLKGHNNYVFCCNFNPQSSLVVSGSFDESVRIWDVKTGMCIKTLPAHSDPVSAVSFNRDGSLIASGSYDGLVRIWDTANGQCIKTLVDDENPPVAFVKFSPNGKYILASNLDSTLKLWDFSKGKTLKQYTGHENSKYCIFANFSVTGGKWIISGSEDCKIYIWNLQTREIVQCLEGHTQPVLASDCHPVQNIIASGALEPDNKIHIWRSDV

Results are given in words; binding and its absence hold for the method and conditions named. In cells and extracts the contact can be indirect. A yes stands for co-enrichment or nearness to the bait. Other partners may have been found. For part of these data: No binding means not detected with the bait. For part of these data: Sequences can lack the tags named with a protein.

The target in the first assay is T1, CFP-1::GFP (C. elegans) (UniProt Q9XUE7).
T1 sequence: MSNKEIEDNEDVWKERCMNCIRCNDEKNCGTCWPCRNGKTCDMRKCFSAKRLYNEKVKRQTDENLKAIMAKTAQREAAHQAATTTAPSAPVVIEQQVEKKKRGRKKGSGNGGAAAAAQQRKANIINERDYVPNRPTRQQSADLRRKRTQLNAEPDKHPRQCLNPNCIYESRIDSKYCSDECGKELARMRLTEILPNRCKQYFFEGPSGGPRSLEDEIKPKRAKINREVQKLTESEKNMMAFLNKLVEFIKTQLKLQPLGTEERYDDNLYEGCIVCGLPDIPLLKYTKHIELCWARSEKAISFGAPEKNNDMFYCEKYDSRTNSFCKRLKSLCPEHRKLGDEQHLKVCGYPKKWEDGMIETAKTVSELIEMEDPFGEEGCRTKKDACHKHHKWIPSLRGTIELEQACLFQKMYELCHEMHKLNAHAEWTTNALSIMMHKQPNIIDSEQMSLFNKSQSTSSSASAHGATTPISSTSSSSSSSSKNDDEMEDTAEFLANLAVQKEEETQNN
The experiment in a line: affinity purification with mass spectrometry; CFP-1::GFP precipitated with GFP-TRAP MA beads from about 70 mg late stage embryo extract (strain PFR572); IP buffer with 300 mM KCl, benzonase; nanoLC-MS/MS; wild-type (N2) embryos as negative control.
Consider “SWD-2.1 (C. elegans (endogenous in embryos))”, for which the binding result is reported as “binds”.
Same read-out and setting: for “PIS-1 (C. elegans (endogenous in embryos))” the value was “no binding”.
For the molecule “SUDS-3 (C. elegans (endogenous in embryos))”, the binding result is “no binding”.
For “UTX-1 (C. elegans (endogenous in embryos))”, the binding entry is reported as “no binding”.
With “SET-16 (C. elegans (endogenous in embryos))”, the binding entry is listed as “no binding”.
Still for that read-out and setting: for B1 the value was “binds”; for B2, “binds”.

Another assay addresses HA::WDR-5.1 (C. elegans) (UniProt Q17963). The experiment in a line: affinity purification with mass spectrometry; HA::WDR-5.1 precipitated with anti-HA affinity matrix from about 60 mg embryo extract (strain PFR506); IP buffer with 300 mM KCl, benzonase, HA peptide elution; nanoLC-MS/MS; wild-type (N2) embryos as negative control.
As to B1, the binding entry is on record as “binds”.
On the same count and under the same terms, the entry for B3 is “binds”; for B4 it is “binds”; for B2 it is “binds”.
As to B5, the binding entry was “binds”.

The record behind these values is article PMC6868398.
